Only a part is listed here, and it is no random draw.
compound: COC(=O)C#Cc1ccccc1 [methyl 3-phenylpropiolate]; test: log2 ratio of iodoacetamide-alkyne labeling of the cysteine site, DMSO over compound (competition); higher = stronger covalent engagement of the cysteine by the compound, active = 1 or more; conditions: 500 µM; treatment time 1 h; system: HEK293T cell lysate
How it was run: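 Three replicates, each with duplicate channels, were prepared from HEK293T lysate (2 mg/mL) treated with vehicle or electrophile at 500 µM for 1 h at ambient temperature. Iodoacetamide alkyne was then applied for 1 h, and samples were clicked to sCIP-TMT reagents, pooled, trypsin-digested overnight at 37 °C, enriched on streptavidin, acid-eluted and analysed on Orbitrap Eclipse LC-MS/MS with FAIMS, with FragPipe quantification. The log2 competition ratio per cysteine is the mean control-channel divided by the mean compound-channel reporter intensity. Cysteines quantified in only one replicate were left out.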

Amino acid sequences for entries named in this document (tags omitted). A change or cut given only in a name is not applied to a line headed by its entry.
UniProt Q8WYP5: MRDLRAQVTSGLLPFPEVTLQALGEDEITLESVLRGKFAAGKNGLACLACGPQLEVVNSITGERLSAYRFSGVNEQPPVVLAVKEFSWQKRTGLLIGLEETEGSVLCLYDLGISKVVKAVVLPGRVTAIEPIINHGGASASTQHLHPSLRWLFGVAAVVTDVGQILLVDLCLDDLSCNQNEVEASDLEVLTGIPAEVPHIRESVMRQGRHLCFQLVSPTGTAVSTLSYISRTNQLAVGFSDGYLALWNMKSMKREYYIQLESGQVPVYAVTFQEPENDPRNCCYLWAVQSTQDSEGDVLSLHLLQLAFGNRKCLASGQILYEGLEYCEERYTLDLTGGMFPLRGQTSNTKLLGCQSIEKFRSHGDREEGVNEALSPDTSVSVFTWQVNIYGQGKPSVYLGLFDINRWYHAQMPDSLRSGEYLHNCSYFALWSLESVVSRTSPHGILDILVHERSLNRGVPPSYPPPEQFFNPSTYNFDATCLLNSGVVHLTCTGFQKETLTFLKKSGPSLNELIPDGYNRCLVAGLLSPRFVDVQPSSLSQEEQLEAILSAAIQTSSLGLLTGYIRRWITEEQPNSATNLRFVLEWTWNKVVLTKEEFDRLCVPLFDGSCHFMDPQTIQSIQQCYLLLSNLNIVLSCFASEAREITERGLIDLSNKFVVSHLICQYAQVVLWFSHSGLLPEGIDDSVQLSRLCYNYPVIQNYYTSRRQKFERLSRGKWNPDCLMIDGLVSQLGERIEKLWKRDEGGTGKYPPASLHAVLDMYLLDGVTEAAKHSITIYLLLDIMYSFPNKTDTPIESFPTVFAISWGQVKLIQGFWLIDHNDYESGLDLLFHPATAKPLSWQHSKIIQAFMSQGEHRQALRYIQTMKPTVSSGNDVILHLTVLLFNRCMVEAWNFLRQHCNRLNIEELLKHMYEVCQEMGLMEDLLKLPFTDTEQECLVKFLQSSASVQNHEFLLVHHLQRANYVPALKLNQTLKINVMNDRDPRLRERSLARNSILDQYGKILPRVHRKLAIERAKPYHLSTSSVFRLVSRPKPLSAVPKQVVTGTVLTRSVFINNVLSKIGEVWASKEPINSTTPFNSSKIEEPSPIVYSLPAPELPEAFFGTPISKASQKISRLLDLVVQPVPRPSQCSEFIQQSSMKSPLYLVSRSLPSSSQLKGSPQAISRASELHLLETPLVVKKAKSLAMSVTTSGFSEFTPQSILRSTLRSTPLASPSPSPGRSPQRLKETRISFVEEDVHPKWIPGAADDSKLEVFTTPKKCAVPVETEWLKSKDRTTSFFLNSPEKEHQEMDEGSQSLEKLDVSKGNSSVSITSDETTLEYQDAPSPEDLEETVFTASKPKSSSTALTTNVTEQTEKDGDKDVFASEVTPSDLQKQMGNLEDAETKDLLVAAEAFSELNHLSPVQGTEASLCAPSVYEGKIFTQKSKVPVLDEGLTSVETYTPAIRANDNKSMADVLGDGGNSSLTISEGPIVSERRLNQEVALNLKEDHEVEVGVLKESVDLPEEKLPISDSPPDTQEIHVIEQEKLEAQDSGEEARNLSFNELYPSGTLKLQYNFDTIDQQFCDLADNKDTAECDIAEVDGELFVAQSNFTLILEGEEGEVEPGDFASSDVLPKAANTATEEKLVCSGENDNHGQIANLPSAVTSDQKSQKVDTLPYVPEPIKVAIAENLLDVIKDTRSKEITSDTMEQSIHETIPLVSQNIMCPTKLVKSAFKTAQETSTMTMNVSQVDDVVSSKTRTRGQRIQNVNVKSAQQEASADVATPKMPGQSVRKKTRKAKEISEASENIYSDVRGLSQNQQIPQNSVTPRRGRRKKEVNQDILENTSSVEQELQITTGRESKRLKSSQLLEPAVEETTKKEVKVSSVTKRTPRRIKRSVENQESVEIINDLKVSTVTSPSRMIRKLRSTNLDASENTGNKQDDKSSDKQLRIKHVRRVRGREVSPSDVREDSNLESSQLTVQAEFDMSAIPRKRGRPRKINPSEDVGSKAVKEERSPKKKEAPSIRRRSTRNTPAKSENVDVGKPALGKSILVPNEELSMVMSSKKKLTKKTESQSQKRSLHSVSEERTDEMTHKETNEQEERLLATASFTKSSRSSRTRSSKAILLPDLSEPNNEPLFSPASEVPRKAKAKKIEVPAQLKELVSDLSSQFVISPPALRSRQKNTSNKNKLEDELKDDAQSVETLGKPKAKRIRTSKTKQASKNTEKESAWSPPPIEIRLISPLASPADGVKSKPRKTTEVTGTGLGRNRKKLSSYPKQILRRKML
UniProt Q8NEC7: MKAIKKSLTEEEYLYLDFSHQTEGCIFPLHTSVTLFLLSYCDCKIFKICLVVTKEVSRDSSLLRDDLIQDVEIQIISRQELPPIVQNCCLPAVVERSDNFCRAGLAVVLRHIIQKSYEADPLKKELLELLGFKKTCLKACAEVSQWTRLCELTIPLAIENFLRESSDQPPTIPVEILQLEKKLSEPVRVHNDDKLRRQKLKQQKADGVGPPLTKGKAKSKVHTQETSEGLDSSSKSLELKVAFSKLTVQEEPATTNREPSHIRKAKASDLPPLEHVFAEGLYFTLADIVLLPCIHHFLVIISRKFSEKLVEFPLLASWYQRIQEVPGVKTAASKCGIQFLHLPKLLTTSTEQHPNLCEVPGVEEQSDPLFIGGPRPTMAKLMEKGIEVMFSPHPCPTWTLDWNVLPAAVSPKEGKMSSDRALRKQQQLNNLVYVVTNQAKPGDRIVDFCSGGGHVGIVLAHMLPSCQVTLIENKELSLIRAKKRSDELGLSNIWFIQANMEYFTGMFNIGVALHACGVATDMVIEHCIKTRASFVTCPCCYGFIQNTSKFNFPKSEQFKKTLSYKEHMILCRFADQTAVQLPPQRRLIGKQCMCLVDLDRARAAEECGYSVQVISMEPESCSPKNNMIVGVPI
UniProt Q8TDX7: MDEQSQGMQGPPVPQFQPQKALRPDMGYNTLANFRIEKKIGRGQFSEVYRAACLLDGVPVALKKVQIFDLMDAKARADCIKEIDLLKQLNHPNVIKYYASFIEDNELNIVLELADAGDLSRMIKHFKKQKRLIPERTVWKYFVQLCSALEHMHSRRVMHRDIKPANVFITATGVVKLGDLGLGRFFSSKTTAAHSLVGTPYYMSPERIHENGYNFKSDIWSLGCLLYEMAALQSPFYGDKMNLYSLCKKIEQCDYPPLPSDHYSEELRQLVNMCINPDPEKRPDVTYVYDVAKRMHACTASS
UniProt Q8NI27: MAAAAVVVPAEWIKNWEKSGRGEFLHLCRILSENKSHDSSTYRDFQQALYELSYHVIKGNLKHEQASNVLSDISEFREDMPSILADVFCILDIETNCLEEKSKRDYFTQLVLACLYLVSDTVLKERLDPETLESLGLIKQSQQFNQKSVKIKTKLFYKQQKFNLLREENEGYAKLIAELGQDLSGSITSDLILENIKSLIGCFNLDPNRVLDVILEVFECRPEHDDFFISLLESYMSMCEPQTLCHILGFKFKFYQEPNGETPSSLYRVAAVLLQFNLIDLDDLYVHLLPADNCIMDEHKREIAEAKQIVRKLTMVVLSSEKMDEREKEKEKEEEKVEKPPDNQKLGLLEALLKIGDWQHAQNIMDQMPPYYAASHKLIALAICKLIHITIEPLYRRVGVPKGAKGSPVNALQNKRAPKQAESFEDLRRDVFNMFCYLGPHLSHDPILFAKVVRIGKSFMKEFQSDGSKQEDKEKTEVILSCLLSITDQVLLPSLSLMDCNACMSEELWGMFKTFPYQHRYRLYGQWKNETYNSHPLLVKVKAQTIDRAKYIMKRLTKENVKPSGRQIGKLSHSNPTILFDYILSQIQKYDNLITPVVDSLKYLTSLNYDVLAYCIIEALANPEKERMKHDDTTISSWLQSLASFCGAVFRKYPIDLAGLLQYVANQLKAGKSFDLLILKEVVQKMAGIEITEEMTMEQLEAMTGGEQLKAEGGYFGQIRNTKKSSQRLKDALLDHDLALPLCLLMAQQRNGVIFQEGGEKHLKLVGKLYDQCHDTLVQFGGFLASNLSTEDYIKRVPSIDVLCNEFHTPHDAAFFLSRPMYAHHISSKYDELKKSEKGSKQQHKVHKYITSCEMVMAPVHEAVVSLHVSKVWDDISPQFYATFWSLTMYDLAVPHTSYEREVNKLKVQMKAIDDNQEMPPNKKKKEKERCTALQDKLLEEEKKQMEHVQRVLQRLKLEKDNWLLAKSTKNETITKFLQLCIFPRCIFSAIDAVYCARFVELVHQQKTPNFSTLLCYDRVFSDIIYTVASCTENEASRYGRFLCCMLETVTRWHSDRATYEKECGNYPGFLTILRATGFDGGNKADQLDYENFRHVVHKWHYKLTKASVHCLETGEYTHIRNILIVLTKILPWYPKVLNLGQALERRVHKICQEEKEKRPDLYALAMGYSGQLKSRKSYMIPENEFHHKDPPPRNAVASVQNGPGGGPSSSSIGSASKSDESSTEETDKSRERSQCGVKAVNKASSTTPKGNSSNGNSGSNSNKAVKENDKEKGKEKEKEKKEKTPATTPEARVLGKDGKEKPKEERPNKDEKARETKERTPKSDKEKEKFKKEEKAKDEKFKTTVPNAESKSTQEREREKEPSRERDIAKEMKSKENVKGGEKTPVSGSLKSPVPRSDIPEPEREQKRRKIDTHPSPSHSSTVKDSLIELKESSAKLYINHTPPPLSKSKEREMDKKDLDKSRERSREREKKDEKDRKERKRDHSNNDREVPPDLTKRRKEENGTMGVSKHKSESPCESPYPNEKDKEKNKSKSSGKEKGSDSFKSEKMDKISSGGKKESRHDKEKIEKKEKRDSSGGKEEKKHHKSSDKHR
UniProt Q8N0Z3: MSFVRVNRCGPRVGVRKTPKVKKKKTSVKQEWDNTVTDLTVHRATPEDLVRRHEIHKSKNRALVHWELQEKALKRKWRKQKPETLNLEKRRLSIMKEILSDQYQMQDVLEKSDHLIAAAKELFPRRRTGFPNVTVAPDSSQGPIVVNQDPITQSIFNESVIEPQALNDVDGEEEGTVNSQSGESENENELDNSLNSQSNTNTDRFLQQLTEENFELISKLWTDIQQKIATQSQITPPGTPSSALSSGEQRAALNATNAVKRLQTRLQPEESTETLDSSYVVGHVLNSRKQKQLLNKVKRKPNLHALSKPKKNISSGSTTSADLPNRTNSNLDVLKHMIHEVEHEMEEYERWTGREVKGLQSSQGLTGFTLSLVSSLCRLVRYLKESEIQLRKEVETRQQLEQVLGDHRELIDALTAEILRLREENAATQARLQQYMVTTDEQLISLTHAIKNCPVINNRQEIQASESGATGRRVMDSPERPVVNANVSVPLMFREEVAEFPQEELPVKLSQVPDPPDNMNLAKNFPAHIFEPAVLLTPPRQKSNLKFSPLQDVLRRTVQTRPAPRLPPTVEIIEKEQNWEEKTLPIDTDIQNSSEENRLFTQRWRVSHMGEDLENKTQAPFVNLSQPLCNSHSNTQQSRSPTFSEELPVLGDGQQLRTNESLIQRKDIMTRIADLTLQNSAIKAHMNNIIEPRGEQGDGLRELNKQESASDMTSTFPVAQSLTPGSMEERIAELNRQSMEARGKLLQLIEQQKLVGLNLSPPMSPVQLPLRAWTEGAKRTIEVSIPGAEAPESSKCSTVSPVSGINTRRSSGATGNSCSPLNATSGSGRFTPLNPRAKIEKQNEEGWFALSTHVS
UniProt Q8TD30: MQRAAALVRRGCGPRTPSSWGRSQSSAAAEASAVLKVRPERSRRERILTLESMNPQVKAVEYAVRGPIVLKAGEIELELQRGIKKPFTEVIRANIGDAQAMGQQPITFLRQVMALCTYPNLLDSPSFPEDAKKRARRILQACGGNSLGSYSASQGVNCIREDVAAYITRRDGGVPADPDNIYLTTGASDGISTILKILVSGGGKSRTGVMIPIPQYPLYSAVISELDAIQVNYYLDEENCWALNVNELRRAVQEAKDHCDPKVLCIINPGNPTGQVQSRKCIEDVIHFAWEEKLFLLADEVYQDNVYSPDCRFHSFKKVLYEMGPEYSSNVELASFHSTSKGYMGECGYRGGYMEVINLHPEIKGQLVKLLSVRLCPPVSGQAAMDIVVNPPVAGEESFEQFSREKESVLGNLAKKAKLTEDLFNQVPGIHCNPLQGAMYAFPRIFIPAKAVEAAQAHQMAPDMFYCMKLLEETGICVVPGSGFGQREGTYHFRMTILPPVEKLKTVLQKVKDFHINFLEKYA

Row | Target | log2 ratio of iodoacetamide-alkyne labeling
1 | MICALL1 C597 (UniProt Q8N3F8) | inactive: 0.47
2 | UniProt Q8WUQ7_C699 | inactive: 0.0859
3 | UniProt Q8TE02_C203 | inactive: -0.0789
4 | ASCC3 C208 (UniProt Q8N3C0) | inactive: 0.436
5 | AHCTF1 C693 (UniProt Q8WYP5) | inactive: 0.747
6 | INTS1 C1534 (UniProt Q8N201) | inactive: 0.294
7 | GSTCD C335 (UniProt Q8NEC7) | inactive: 0.19
8 | PDCD6IP C231 (UniProt Q8WUM4) | inactive: 0.409
9 | SMCR8 C644 (UniProt Q8TEV9) | inactive: 0.488
10 | ZNF687 C91 (UniProt Q8N1G0) | inactive: 0.734
11 | ENGASE C113 (UniProt Q8NFI3) | inactive: 0.206
12 | BCL7C C211 (UniProt Q8WUZ0) | inactive: 0.622
13 | UniProt Q8NBJ5_C203 | inactive: 0.366
14 | NEK7 C53 (UniProt Q8TDX7) | inactive: 0.143
15 | PIAS4 C164 (UniProt Q8N2W9) | inactive: 0.358
16 | PIEZO1 C383 (UniProt Q92508) | inactive: 0.166
17 | ARFGAP1 C96 (UniProt Q8N6T3) | inactive: 0.33
18 | THOC2 C773 (UniProt Q8NI27) | inactive: 0.0974
19 | UniProt Q8N6Q8_C5 | inactive: 0.701

Pulled one by one from the entries so far:
Row | Target | log2 ratio of iodoacetamide-alkyne labeling
5 | AHCTF1 C693 (UniProt Q8WYP5) | inactive: 0.747
19 | UniProt Q8N6Q8_C5 | inactive: 0.701

(cont.)

Row | Target | log2 ratio of iodoacetamide-alkyne labeling
20 | UniProt Q8WXA9_C494 | inactive: 0.148
21 | TRUB1 C249 (UniProt Q8WWH5) | inactive: 0.0333
22 | ING5 C19 (UniProt Q8WYH8) | inactive: 0.29
23 | UniProt Q8N6R0_C391 | inactive: 0.2
24 | PPP4R1 C645 (UniProt Q8TF05) | inactive: 0.853
25 | NHLRC2 C161 (UniProt Q8NBF2) | inactive: -0.365
26 | SYNE2 C5212 (UniProt Q8WXH0) | inactive: 0.603
27 | PPFIBP2 C446 (UniProt Q8ND30) | inactive: 0.563
28 | NEK7 C298 (UniProt Q8TDX7) | inactive: 0.152
29 | VPS8 C1371 (UniProt Q8N3P4) | inactive: 0.234
30 | NEK9 C11 (UniProt Q8TD19) | active: 1.21
31 | ZNF687 C339 (UniProt Q8N1G0) | inactive: 0.853
32 | UniProt Q8N0Z3_C818 | inactive: 0.582
33 | GPT2 C477 (UniProt Q8TD30) | inactive: 0.287
34 | OTUD6B C172 (UniProt Q8N6M0) | inactive: 0.377
35 | SUPT20H C298 (UniProt Q8NEM7) | inactive: 0.262
36 | TRUB1 C307 (UniProt Q8WWH5) | inactive: 0.434
37 | NUP133 C1037 (UniProt Q8WUM0) | inactive: 0.0278

From the supplement of paper PMC11006884
